Source: publication PMC10716376, “The assembly of the Mitochondrial Complex I Assembly complex uncovers a redox pathway coordination” (Nature Communications, 2023)
Results are given in words; binding and its absence hold for the method and conditions named.

Target: T1, VLCADWT (very long chain acyl-CoA dehydrogenase, res. 72-655) (human) (UniProt P49748)
T1 sequence: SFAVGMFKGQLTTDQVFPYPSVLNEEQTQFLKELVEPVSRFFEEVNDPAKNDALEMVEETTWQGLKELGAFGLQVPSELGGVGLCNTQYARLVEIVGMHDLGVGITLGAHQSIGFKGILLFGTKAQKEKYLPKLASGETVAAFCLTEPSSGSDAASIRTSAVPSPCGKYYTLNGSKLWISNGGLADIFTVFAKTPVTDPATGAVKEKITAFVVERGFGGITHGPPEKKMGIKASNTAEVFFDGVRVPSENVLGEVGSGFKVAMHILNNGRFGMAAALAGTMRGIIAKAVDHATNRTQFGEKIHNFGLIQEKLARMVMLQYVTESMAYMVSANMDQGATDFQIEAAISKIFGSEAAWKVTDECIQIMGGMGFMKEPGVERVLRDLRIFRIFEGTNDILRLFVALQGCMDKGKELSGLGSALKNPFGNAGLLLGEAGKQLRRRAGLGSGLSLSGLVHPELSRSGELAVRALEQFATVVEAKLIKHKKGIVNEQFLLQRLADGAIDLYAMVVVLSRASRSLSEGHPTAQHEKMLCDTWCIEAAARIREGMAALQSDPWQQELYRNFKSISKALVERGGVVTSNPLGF
Assay: mass photometry; ACAD9 (or VLCAD) at 20-50 nM in 25 mM HEPES pH 7.5, 250 mM NaCl, or diluted in 4.8 uM ECSIT solution for complex formation; both purified

B1: ECSIT_(CTER) (residues 221-431) (domain or fragment, human, UniProt Q9BQ95 221-431, looked up)
chain: QDPVELAMFGLRHMEPDLSARVTIYQVPLPKDSTGAADPPQPHIVGIQSPDQQAALARHNPARPVFVEGPFSLWLRNKCVYYHILRADLLPPEEREVEETPEEWNLYYPMQLDLEYVRSGWDNYEFDINEVEEGPVFAMCMAGAHDQATMAKWIQGLQETNPTLAQIPVVFRLAGSTRELQTSSAGLEEPPLPEDHQEEDDNLQRQQQGQS
notes: human ECSIT, residues 221-431; E. coli codon-optimised synthetic gene; Only residues 320-334 are modelled in the cryo-EM map; Plasmid details are in Supplementary Data 1; also called C-terminal ECSIT; source: E. coli BL21 Star (DE3), purified (HisTrap, SEC)
binding: no binding (tested: 4.8 uM ECSIT solution)
